Experimental data reported in the supplement of paper PMC10849652.
Some of the results follow.

Amino acid sequences for entries named in this document (tags omitted). A change or cut given only in a name is not applied to a line headed by its entry.
UniProt Q9NXF8: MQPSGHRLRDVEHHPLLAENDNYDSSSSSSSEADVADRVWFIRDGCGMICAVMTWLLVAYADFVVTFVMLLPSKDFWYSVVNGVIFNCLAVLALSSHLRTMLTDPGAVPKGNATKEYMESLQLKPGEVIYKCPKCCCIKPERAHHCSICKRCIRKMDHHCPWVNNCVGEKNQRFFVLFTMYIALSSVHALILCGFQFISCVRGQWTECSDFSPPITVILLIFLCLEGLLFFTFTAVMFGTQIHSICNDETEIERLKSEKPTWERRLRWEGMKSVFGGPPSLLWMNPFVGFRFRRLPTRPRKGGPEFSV
UniProt Q01831: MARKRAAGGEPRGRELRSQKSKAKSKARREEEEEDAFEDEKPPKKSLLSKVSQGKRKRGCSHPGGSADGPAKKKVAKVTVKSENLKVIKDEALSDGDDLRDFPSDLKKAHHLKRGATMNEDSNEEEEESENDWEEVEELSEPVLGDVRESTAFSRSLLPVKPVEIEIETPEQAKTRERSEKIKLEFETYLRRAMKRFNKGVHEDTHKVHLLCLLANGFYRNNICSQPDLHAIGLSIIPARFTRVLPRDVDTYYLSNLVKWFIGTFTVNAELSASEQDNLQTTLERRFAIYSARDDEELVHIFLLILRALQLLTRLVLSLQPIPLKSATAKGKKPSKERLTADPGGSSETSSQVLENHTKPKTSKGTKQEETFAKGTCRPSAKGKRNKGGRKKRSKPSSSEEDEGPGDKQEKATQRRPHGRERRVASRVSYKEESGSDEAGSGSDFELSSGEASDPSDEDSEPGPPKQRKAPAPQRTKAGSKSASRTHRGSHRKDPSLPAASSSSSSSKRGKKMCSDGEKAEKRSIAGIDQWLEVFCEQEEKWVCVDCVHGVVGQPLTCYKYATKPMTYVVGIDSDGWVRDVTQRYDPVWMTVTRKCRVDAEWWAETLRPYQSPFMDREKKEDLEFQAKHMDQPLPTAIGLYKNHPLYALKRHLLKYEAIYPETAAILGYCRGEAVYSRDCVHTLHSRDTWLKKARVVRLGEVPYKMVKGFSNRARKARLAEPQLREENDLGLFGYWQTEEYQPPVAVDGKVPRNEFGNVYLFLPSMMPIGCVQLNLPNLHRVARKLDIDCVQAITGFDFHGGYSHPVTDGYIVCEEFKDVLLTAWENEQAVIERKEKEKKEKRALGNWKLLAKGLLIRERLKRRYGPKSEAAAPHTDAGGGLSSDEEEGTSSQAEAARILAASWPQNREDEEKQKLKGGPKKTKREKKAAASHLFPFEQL
UniProt P47974: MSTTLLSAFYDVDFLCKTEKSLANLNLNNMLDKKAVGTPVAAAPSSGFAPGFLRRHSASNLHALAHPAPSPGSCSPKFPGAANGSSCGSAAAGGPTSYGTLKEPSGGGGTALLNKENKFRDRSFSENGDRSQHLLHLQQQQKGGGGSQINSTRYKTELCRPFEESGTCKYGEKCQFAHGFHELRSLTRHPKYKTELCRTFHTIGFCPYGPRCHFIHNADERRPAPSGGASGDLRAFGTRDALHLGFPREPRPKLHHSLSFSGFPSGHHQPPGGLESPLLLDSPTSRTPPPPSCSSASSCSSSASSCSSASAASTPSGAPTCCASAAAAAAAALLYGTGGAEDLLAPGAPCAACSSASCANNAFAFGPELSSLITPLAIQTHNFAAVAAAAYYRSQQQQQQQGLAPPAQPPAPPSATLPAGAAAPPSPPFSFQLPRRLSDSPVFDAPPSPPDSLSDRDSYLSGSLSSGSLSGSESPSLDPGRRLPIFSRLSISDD
UniProt P17026: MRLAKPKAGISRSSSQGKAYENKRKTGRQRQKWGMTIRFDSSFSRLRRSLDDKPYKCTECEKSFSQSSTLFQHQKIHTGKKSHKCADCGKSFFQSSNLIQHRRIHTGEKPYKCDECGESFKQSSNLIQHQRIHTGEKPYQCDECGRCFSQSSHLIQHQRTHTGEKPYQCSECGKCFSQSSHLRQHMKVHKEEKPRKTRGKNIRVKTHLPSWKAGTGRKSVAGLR
UniProt C9J5V9: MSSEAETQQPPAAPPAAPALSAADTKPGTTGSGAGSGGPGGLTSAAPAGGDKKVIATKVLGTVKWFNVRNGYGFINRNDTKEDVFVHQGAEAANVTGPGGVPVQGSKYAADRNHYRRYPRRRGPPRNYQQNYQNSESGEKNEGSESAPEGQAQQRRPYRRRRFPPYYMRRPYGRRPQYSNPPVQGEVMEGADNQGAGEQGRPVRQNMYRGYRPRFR
UniProt O43543: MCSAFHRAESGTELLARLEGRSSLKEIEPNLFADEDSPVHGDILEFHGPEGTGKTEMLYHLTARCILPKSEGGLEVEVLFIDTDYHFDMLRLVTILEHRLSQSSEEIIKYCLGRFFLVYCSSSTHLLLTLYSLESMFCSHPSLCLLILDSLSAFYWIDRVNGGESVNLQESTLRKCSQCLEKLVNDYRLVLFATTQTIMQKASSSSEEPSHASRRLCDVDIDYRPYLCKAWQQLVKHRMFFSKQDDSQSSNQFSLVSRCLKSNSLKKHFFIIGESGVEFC
UniProt Q9BWQ6: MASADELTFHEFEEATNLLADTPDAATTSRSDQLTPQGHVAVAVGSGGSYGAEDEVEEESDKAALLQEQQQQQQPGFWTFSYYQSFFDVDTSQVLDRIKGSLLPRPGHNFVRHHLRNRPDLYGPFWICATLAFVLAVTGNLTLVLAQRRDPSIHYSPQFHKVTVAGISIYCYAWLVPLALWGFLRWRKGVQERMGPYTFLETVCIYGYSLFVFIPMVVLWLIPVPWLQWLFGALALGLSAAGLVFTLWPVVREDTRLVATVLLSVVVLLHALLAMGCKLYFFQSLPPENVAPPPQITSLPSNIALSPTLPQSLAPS
UniProt Q86T24: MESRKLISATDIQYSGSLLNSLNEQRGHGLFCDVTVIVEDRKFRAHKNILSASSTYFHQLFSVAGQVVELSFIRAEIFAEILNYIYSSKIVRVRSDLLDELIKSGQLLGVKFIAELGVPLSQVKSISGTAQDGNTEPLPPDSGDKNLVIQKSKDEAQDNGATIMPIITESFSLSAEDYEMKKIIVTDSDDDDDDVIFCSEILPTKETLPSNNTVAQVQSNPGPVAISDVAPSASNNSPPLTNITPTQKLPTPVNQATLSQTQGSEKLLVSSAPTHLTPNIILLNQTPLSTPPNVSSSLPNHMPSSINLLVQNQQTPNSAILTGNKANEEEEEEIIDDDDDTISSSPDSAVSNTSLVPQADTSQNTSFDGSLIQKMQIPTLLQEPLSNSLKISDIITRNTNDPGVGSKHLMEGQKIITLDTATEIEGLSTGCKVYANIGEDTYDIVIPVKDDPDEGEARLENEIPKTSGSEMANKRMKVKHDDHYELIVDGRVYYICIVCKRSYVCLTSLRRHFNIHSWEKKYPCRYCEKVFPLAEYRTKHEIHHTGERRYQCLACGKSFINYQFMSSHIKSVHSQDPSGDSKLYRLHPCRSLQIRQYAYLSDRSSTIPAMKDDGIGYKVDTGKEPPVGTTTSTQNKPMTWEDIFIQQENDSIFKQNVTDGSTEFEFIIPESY
UniProt P58557: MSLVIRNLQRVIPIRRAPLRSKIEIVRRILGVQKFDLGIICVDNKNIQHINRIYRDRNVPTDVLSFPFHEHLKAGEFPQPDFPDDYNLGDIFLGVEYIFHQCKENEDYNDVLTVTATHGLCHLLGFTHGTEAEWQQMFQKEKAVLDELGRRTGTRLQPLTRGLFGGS
UniProt Q96GY0: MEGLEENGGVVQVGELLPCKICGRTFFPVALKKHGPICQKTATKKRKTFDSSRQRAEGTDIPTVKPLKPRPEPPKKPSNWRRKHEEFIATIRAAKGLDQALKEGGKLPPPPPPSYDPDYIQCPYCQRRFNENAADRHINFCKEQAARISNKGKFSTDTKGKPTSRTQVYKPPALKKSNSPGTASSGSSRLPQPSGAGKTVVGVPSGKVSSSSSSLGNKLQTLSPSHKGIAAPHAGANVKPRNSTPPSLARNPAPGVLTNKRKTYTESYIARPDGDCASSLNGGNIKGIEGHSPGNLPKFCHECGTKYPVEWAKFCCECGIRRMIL
UniProt Q9H1B5: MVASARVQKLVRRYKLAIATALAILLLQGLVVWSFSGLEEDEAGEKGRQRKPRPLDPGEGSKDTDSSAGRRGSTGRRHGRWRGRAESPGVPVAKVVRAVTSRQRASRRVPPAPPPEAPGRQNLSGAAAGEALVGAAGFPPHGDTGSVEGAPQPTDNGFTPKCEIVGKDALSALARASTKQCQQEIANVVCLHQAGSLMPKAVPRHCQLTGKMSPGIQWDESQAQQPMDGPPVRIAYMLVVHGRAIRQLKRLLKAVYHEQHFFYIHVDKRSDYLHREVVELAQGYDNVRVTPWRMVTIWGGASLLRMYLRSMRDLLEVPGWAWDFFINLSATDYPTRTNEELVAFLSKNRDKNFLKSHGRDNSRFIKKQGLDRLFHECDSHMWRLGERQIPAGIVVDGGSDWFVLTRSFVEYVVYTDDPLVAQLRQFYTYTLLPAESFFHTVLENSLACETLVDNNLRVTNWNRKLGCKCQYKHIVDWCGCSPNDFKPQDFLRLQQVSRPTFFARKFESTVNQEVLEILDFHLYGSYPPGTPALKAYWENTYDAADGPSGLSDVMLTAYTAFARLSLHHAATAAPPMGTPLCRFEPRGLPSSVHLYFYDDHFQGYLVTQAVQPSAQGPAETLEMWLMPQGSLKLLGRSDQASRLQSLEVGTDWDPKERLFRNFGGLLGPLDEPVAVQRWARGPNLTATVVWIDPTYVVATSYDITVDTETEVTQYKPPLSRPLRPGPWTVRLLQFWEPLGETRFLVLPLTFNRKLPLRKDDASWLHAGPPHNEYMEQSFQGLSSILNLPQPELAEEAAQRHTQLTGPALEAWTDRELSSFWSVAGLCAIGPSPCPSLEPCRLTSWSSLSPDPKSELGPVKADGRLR
UniProt Q8IZH2: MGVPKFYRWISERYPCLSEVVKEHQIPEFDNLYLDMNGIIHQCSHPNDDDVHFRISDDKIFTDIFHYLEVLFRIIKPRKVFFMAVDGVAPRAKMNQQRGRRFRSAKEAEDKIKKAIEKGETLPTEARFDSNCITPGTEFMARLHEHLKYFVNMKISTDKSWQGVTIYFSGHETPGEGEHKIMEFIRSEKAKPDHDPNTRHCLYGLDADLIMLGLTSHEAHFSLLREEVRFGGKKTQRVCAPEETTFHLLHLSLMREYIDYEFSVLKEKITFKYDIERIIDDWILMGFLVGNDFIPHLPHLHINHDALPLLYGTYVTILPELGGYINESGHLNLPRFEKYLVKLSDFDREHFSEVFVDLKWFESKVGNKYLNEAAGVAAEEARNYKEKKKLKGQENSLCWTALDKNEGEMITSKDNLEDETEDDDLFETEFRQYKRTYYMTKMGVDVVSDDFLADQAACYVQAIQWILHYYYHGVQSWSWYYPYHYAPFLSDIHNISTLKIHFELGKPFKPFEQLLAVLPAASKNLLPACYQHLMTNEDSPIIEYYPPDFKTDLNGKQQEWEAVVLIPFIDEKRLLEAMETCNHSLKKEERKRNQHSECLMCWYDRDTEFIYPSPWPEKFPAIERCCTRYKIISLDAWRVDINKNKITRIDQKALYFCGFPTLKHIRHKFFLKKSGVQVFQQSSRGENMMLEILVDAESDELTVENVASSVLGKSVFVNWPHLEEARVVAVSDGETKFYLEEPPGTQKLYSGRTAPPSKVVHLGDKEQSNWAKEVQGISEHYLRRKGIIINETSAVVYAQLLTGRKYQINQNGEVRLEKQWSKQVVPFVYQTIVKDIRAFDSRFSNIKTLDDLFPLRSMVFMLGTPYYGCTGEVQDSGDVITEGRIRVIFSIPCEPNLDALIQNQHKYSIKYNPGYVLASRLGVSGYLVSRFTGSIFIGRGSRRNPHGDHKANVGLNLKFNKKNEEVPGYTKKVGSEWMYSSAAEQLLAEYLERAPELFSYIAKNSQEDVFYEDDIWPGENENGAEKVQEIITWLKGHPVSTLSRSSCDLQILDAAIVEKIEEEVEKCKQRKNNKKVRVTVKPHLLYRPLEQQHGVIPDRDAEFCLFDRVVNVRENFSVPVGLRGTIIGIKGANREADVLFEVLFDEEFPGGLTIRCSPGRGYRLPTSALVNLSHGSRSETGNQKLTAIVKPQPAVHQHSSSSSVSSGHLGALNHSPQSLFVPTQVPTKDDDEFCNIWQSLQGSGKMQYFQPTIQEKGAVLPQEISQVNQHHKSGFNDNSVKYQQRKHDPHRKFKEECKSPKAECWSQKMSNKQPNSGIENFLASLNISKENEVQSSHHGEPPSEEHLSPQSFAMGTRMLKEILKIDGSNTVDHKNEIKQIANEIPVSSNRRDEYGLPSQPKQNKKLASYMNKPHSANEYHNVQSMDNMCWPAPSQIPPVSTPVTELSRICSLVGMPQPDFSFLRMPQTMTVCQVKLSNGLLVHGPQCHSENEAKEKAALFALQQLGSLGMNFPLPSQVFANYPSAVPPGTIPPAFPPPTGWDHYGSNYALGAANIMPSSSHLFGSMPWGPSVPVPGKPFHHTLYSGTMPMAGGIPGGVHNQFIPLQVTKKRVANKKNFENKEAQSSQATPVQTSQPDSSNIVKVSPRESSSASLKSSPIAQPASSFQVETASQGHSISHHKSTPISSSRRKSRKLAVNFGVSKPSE

Tests used:
Assay in all cases: log2 fold change, soluble protein after heating vs DMSO (PISA); higher = thermal stabilisation; K562 cells, 10 uM, 30 min; active = over 0.2 and 3.5 SD of the protein, either way, in both replicates (recomputed)
[1] = compound: CC1=NC(=CC=C1)C2=C(N=C(N2)C(C)(C)C)C3=CC4=NC=CN=C4C=C3
Procedure, shortened: (§1)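 K562 cells at 2×10^6 cells/mL were treated with 10 μM compound for 30 min. Aliquots were heated for 3 min across 48°C-58°C, pooled, and extracted in PBS with 0.5% NP-40 at 4°C; soluble protein was the supernatant after 21,000xg for 90 min. Soluble protein was quantified by TMTpro 16plex LC-MS/MS with channel sums equalised, and reported as log2 fold change in thermal stability against DMSO controls, with values from duplicates.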

Nexturastat A = compound: CCCCN(Cc1ccc(C(=O)NO)cc1)C(=O)Nc1ccccc1 [Nexturastat A]
Procedure, shortened: as §1

[2] = compound: CCCc1cc(C)[nH]c(=O)c1CNC(=O)c1cc(-c2ccnc(N3CCN(C)CC3)c2)cc2c1cnn2C(C)C
Procedure, shortened: as §1

[3] = compound: CC[C@@H]1C(=O)N(C)c2cnc(Nc3ccc(C(=O)NC4CCN(C)CC4)cc3OC)nc2N1C1CCCC1
Procedure, shortened: as §1

epoxomicin = compound: CC[C@H](C)[C@@H](C(=O)N[C@@H]([C@@H](C)O)C(=O)N[C@@H](CC(C)C)C(=O)[C@]1(CO1)C)NC(=O)[C@H]([C@@H](C)CC)N(C)C(=O)C [epoxomicin]
Procedure, shortened: as §1

[4] = compound: CCn1cc(-c2ccnc3[nH]c(-c4cccc(CN(C)C)c4)cc23)c(-c2ccc(NC(=O)N(C)C)cc2)n1
Procedure, shortened: as §1

[5] = compound: CN1CCC(CNc2ccc3ncc(-c4cccc(OC(F)(F)F)c4)n3n2)CC1
Procedure, shortened: as §1

[6] = compound: CC1=C(C=C(C=C1)NC(=O)C2=CC(=CC=C2)N(C)C)NC(=O)C3=CC=C(C=C3)O
Procedure, shortened: as §1

[7] = compound: CC1=CC=C(C=C1)SC2=C3C=C(SC3=CN=C2)C(=O)N
Procedure, shortened: as §1

vemurafenib = compound: CCCS(=O)(=O)Nc1ccc(F)c(C(=O)c2c[nH]c3ncc(-c4ccc(Cl)cc4)cc23)c1F [vemurafenib]
Procedure, shortened: as §1

[8] = compound: CCCS(=O)(=O)Nc1ccc(F)c(C(=O)c2c[nH]c3ncc(Cl)cc23)c1F
Procedure, shortened: as §1

givinostat = compound: CCN(CC)Cc1ccc2cc(COC(=O)Nc3ccc(C(=O)NO)cc3)ccc2c1 [givinostat]
Procedure, shortened: as §1

volasertib = compound: CC[C@@H]1C(=O)N(C)c2cnc(Nc3ccc(C(=O)N[C@H]4CC[C@H](N5CCN(CC6CC6)CC5)CC4)cc3OC)nc2N1C(C)C [volasertib]
Procedure, shortened: as §1

[9] = compound: CC[C@H](C)N1C=C(C2=C(C=C(C=C21)C3=CN=C(C=C3)N4CCNCC4)C(=O)NCC5=C(C=C(NC5=O)C)C)C
Procedure, shortened: as §1

[10] = compound: CN(C)CC(=O)Nc1ccc2[nH]c(=O)c3ccccc3c2c1
Procedure, shortened: as §1

[11] = compound: CN1C2=C(C3=C1C(=O)N(N=C3)CC4=CC(=CC=C4)N)SC(=C2)S(=O)C
Procedure, shortened: as §1

[12] = compound: CCn1c(C(=O)N(C2CC2)C2CC2)cc2c3c(ncn3C)c(Nc3cc(C)n(C)n3)nc21
Procedure, shortened: as §1

barasertib = compound: CCN(CCCOc1ccc2c(Nc3cc(CC(=O)Nc4cccc(F)c4)[nH]n3)ncnc2c1)CCOP(=O)(O)O [barasertib]
Procedure, shortened: as §1

rosiglitazone = compound: CN(CCOC1=CC=C(C=C1)C[C@H]2C(=O)NC(=O)S2)C3=CC=CC=N3 (racemic) [rosiglitazone]
Procedure, shortened: as §1

Measured: log2 fold change

YTHDC2 (UniProt Q9H6S0)
inactive: [1] -0.119 | Nexturastat A 0.209 | [2] 0.008 | [3] 0.289 | epoxomicin -0.106 | [4] 0.175 | [5] -0.082

ZDHHC7 isoform 2 (UniProt Q9NXF8)
active: [5] -0.415
inactive: [6] 0.014 | [7] -0.138 | [1] 0.335 | Nexturastat A 0.052 | vemurafenib -0.016 | [8] 0.014 | givinostat 0.011 | [3] 0.083 | volasertib -0.059 | [9] -0.099 | epoxomicin 0.124 | [4] -0.363 | [10] 0.057 | [11] 0.02

XPC (UniProt Q01831)
inactive: [6] 0.148 | [7] 0.037 | [1] -0.036 | Nexturastat A 0.269 | vemurafenib 0.264 | [8] 0.06 | givinostat 0.068 | [3] -0.013 | volasertib -0.154 | epoxomicin 0.052 | [12] -0.024 | [10] -0.074

ZFP36L2 (UniProt P47974)
inactive: [2] -0.036 | givinostat 0.149 | [12] -0.316

ZMYM2 (UniProt Q9UBW7)
inactive: [7] -0.019 | [1] -0.025 | [8] 0.057 | barasertib 0.076 | volasertib -0.798 | rosiglitazone 0.242 | [11] -0.005

ZNF22 (UniProt P17026)
inactive: [6] -0.076 | [1] -0.274 | givinostat 0.175 | [12] -0.216 | [11] -0.072

Copied from the entries so far (2 entries):
ZFP36L2 (UniProt P47974)
inactive: [2] -0.036 | givinostat 0.149 | [12] -0.316

ZMYM2 (UniProt Q9UBW7)
inactive: [7] -0.019 | [1] -0.025 | [8] 0.057 | barasertib 0.076 | volasertib -0.798 | rosiglitazone 0.242 | [11] -0.005

Remaining list, next part

YWHAZ (UniProt E7ESK7)
inactive: [6] 0.082 | [7] -0.019 | [1] -0.064 | Nexturastat A 0.34 | [8] -0.05 | [2] -0.393 | barasertib 0.114 | [3] 0.1 | volasertib -0.173 | epoxomicin -0.075 | [11] 0.101

YBX1 (UniProt C9J5V9)
inactive: [1] -0.03

XRCC2 (UniProt O43543)
inactive: [7] 0.075 | Nexturastat A 0.036 | [8] 0.01 | [2] 0.063 | givinostat 0.098 | volasertib 0.005 | [9] 0.017 | epoxomicin -0.023 | [12] -0.042 | [11] -0.057

YIPF2 (UniProt Q9BWQ6)
inactive: [6] 0.005 | Nexturastat A -0.034 | barasertib 0.105 | [9] 0.17 | epoxomicin -0.002 | rosiglitazone -0.092

ZFX isoform 3 (UniProt P17010)
inactive: vemurafenib -0.075 | [10] 0.278

ZBTB33 (UniProt Q86T24)
inactive: [3] 0.108 | [11] -0.02

ZC3H13 (UniProt Q5T200)
inactive: [6] 0.428 | [7] 0.17 | [1] -0.039 | Nexturastat A 0.247 | vemurafenib -0.236 | [8] -0.432 | [2] -0.262 | givinostat -0.039 | barasertib 0.072 | [3] 0.057 | volasertib 0.048 | [9] -0.136 | epoxomicin -0.299 | [12] -0.064 | [4] 0.142 | [10] -0.181 | rosiglitazone -0.082 | [11] 0.036 | [5] -0.311

YBEY (UniProt P58557)
inactive: [6] -0.005 | givinostat -0.349 | [12] 0.071 | [4] -0.72 | [5] -0.796

ZC2HC1A (UniProt Q96GY0)
inactive: [6] 0.095 | [7] 0.016 | [1] -0.148 | Nexturastat A 0.069 | vemurafenib 0.005 | [8] -0.112 | [2] 0.06 | givinostat 0.035 | barasertib -0.027 | [3] 0.103 | volasertib 0.22 | [9] -0.042 | epoxomicin 0.093 | [12] -0.01 | [4] 0.305 | [10] 0.016 | rosiglitazone -0.037 | [11] 0.049 | [5] -0.285

XYLT2 (UniProt Q9H1B5)
inactive: [1] 0.017 | Nexturastat A -0.023 | epoxomicin -0.079

XRN1 (UniProt Q8IZH2)
inactive: [6] 0.042 | [1] -0.311 | Nexturastat A 0.003 | vemurafenib 0.092 | [2] -0.212 | barasertib 0.287 | [3] -0.03 | [9] 0.038 | epoxomicin -0.129 | [4] 0.087 | [10] -0.139 | rosiglitazone 0.064 | [11] 0.367 | [5] 0.085
